The list does not hold the whole screen: it gathers tests that were run many times, whatever their T/C, doses with no T/C, and many T/C values between a quarter and a half above the control. Other doses and runs of a compound stand elsewhere. T/C gives the treated animals as a percentage of the vehicle group. Some entries give survivors of the animals treated and no T/C: the source holds a T/C of zero for them, seemingly a mark for toxic or unscored doses. Some doses without a T/C left all or most animals alive at the check, yet need not have been tolerated: the source hardly ever lists a survival T/C far under the control, and the zero likely stands for such cases as well. Counts of survivors are from the toxicity check (mostly the fifth day) where no day follows; animals may have died later. Schedules are NCI's codes, taken here to give the interval after Q, in days (D) or hours (H), and the number of doses after X. For survival time, the PubChem record calls one and a half times the control and up active, and a quarter to a half above the control has no call in these data; cut-offs in other NCI protocols can differ. Some entries hold several experiments; the results are listed from low to high.
Test system: P388 leukemia ip, CD2F1 mice, survival T/C
Test: NCI In Vivo Anticancer Drug Screen. Data for tumor model P388 Leukemia (intraperitoneal) in CD2F1 (CDF1) mice
Details: T/C endpoint: median survival time, higher T/C = longer survival
[1] = dose: 240.0 mg/kg/injection, schedule: Q01DX005 (ip), vehicle: saline with Tween-80
[2] = dose: 200.0 mg/kg/injection, schedule: Q01DX001 (ip), vehicle: Klucel (hydroxypropylcellulose) (HPC)
[3] = dose: 400.0 mg/kg/injection, schedule: Q01DX001 (ip), vehicle: Klucel (hydroxypropylcellulose) (HPC)
[4] = dose: 25.0 mg/kg/injection, schedule: Q01DX005 (ip), vehicle: Klucel (hydroxypropylcellulose) (HPC)
[5] = dose: 50.0 mg/kg/injection, schedule: Q01DX005 (ip), vehicle: Klucel (hydroxypropylcellulose) (HPC)
[6] = dose: 100.0 mg/kg/injection, schedule: Q01DX005 (ip), vehicle: Klucel (hydroxypropylcellulose) (HPC)
[7] = dose: 200.0 mg/kg/injection, schedule: Q01DX005 (ip), vehicle: Klucel (hydroxypropylcellulose) (HPC)
[8] = dose: 120.0 mg/kg/injection, schedule: Q01DX005 (ip), vehicle: Klucel (hydroxypropylcellulose) (HPC)
[9] = dose: 6.25 mg/kg/injection, schedule: Q01DX005 (ip), vehicle: Klucel (hydroxypropylcellulose) (HPC)
[10] = dose: 50.0 mg/kg/injection, schedule: Q01DX009 (ip), vehicle: saline with Tween-80
[11] = dose: 400.0 mg/kg/injection, schedule: Q04DX003 (ip), vehicle: Klucel (hydroxypropylcellulose) (HPC)

CC1OC(O[C@H]2C[C@](O)(C(=O)CO)Cc3c(O)c4c(c(O)c32)C(=O)c2c(OCc3ccccc3)cccc2C4=O)CC(N)C1O (some centres not stated)
T/C (dose: 3.13 mg/kg/injection, schedule: Q04DX003 (ip), vehicle: distilled water + Tween-80): 125 % of control
T/C (dose: 12.5 mg/kg/injection, schedule: Q04DX003 (ip), vehicle: distilled water + Tween-80): 131 % of control
T/C (dose: 25.0 mg/kg/injection, schedule: Q04DX003 (ip), vehicle: distilled water + Tween-80): 128 % of control
T/C (dose: 50.0 mg/kg/injection, schedule: Q04DX003 (ip), vehicle: distilled water + Tween-80): 128 % of control

O=C(O)c1ccc(NC(=S)NC(=O)c2cccc(Br)c2)cc1
survivor count [1]: 5 of 6

Cc1cc2cc(CN)ccc2n1C
survivor count [2]: 0 of 6
survivor count [3]: 0 of 6

O=c1c([N+](=O)[O-])c[nH]c2ccccc12
survivor count (dose: 400.0 mg/kg/injection, schedule: Q01DX009 (ip), vehicle: distilled water + Tween-80): 3 of 6

O=C(O)C(Cc1ccc(O)cc1)NS(=O)(=O)Cc1ccccc1 (configuration not stated)
survivor count (dose: 400.0 mg/kg/injection, schedule: Q01DX009 (ip), vehicle: DMSO): 6 of 6

CC1(c2ccccc2)CCCC(C#N)C1=N (configuration not stated)
survivor count (dose: 100.0 mg/kg/injection, schedule: Q01DX001 (ip), vehicle: Klucel (hydroxypropylcellulose) (HPC)): 3 of 6
survivor count [2]: 2 of 6
survivor count [3]: 0 of 6

CSc1nc(N)nc2nc[nH]c12
survivor count (dose: 400.0 mg/kg/injection, schedule: Q04DX003 (ip), vehicle: saline with Tween-80): 0 of 6

COc1ccc2c(c1)CCC1C2CCC2(C)C1CCC2(C)N(C)C (configuration not stated)
survivor count [4]: 1 of 6
survivor count [5]: 0 of 6
survivor count [6]: 0 of 6
survivor count [7]: 0 of 6

Cc1c(N=Nc2cccc(F)c2)c(-c2ccccc2)nn1C(N)=S
survivor count (dose: 50.0 mg/kg/injection, schedule: Q01DX005 (ip), vehicle: saline with Tween-80): 1 of 5
survivor count (dose: 100.0 mg/kg/injection, schedule: Q01DX005 (ip), vehicle: saline with Tween-80): 0 of 5
survivor count (dose: 200.0 mg/kg/injection, schedule: Q01DX005 (ip), vehicle: saline with Tween-80): 0 of 5

CC1=CC2(C)OC(=O)N(c3ccccc3)C2N=C1 (configuration not stated)
survivor count (dose: 200.0 mg/kg/injection, schedule: Q01DX009 (ip), vehicle: Klucel (hydroxypropylcellulose) (HPC)): 0 of 6

Cc1[nH]c(=O)[nH]c(=O)c1/C=C/C(=O)NC(CO)CS(C)=O (configuration not stated)
survivor count (dose: 0.08 mg/kg/injection, schedule: Q01DX009 (ip), vehicle: water): 6 of 6
survivor count (dose: 2.5 mg/kg/injection, schedule: Q01DX009 (ip), vehicle: water): 6 of 6
survivor count (dose: 5.0 mg/kg/injection, schedule: Q01DX009 (ip), vehicle: water): 6 of 6
T/C (dose: 8.0 mg/kg/injection, schedule: Q01DX009 (ip), vehicle: water): 133 % of control
survivor count (dose: 10.0 mg/kg/injection, schedule: Q01DX009 (ip), vehicle: water): 6 of 6
T/C (dose: 16.0 mg/kg/injection, schedule: Q01DX009 (ip), vehicle: water): 134 % of control
survivor count (dose: 20.0 mg/kg/injection, schedule: Q01DX009 (ip), vehicle: water): 6 of 6
T/C (dose: 128.0 mg/kg/injection, schedule: Q01DX009 (ip), vehicle: water): 137 % of control
T/C (dose: 256.0 mg/kg/injection, schedule: Q01DX009 (ip), vehicle: water): 127 and 137 % of control
survivor count (dose: 384.0 mg/kg/injection, schedule: Q01DX009 (ip), vehicle: water): 2 of 4

Cc1cc(C)c(C(CC(=O)O)C(CC(=O)O)c2c(C)cc(C)cc2C)c(C)c1 (configuration not stated)
survivor count [8]: 6 of 6
survivor count (dose: 240.0 mg/kg/injection, schedule: Q01DX005 (ip), vehicle: Klucel (hydroxypropylcellulose) (HPC)): 5 of 6

FC(F)(F)C1(C(F)(F)F)O[Si]2(OC(C(F)(F)F)(C(F)(F)F)c3ccccc32)c2ccccc21 (tested in a mixture with another compound)
survivor count (dose: 200.0 mg/kg/injection, schedule: Q04DX002 (ip), vehicle: Klucel (hydroxypropylcellulose) (HPC)): 3 of 6
survivor count (dose: 400.0 mg/kg/injection, schedule: Q04DX002 (ip), vehicle: Klucel (hydroxypropylcellulose) (HPC)): 0 of 6

CC1CN1S(=O)(=O)N1CC1C (configuration not stated)
T/C (dose: 10.0 mg/kg/injection, schedule: Q01DX009 (ip), vehicle: saline with Tween-80): 145 % of control

Nc1nc(N)n2c(N)nnc2n1
survivor count (dose: 400.0 mg/kg/injection, schedule: Q01DX009 (ip), vehicle: saline): 6 of 6

Cc1nc(C(=O)O)c(C(=O)O)[nH]1
survivor count (dose: 50.0 mg/kg/injection, schedule: Q01DX009 (ip), vehicle: saline sonified): 6 of 6

CC12C=CC(C(C(=O)O)C1=O)C2(C)C (configuration not stated)
survivor count (dose: 400.0 mg/kg/injection, schedule: Q04DX002 (ip), vehicle: saline with Tween-80): 3 of 6

COc1cc(OC)c(NC(=O)Nc2cc(Cl)ccc2Cl)cc1Cl
survivor count (dose: 200.0 mg/kg/injection, schedule: Q01DX009 (ip), vehicle: saline with Tween-80): 6 of 6

CCS/C(SC)=C(/c1ccccc1)[P+](c1ccccc1)(c1ccccc1)c1ccccc1
T/C (dose: 1.56 mg/kg/injection, schedule: Q01DX005 (ip), vehicle: Klucel (hydroxypropylcellulose) (HPC)): 140 % of control
T/C [9]: 126 % of control
survivor count [9]: 5 of 6
survivor count (dose: 12.5 mg/kg/injection, schedule: Q01DX005 (ip), vehicle: Klucel (hydroxypropylcellulose) (HPC)): 0 of 6
survivor count [4]: 3 of 6
survivor count [5]: 2 of 6
survivor count [6]: 0 of 6
survivor count [7]: 0 of 6

COP(=O)(O)OC.[Ti]
survivor count (dose: 100.0 mg/kg/injection, schedule: Q01DX001 (ip), vehicle: saline with Tween-80): 6 of 6
survivor count (dose: 200.0 mg/kg/injection, schedule: Q01DX001 (ip), vehicle: saline with Tween-80): 6 of 6
survivor count (dose: 400.0 mg/kg/injection, schedule: Q01DX001 (ip), vehicle: saline with Tween-80): 6 of 6

Cc1cc2c(=O)cc(-c3ccccc3Cl)oc2c(C#N)c1C
survivor count (dose: 15.0 mg/kg/injection, schedule: Q01DX005 (ip), vehicle: Klucel (hydroxypropylcellulose) (HPC)): 6 of 6
survivor count (dose: 30.0 mg/kg/injection, schedule: Q01DX005 (ip), vehicle: Klucel (hydroxypropylcellulose) (HPC)): 6 of 6
survivor count (dose: 60.0 mg/kg/injection, schedule: Q01DX005 (ip), vehicle: Klucel (hydroxypropylcellulose) (HPC)): 6 of 6
survivor count [8]: 5 of 6

Cc1coc2c1CC1(C)C(CCC(OC(=O)CC(C)C)C1C)C2=O (configuration not stated) (tested in a mixture with another compound)
survivor count (dose: 400.0 mg/kg/injection, schedule: Q01DX009 (ip), vehicle: Klucel (hydroxypropylcellulose) (HPC)): 0 of 6

CCN(CC)Cc1cc(N=Nc2c(O)ccc3c(N=Nc4ccc(O)c(CN(CC)CC)c4)c(O)ccc23)ccc1O
T/C [7]: 126 % of control

O=[N+]([O-])c1cccc(C(O)C=C(C(F)(F)F)C(F)(F)F)c1 (configuration not stated)
survivor count (dose: 33.0 mg/kg/injection, schedule: Q01DX009 (ip), vehicle: saline with Tween-80): 6 of 6
T/C [10]: 127 % of control
survivor count [10]: 6 of 6
survivor count (dose: 75.0 mg/kg/injection, schedule: Q01DX009 (ip), vehicle: saline with Tween-80): 6 of 6

CCCCCCCC[N+]1(CC)CCCC1
survivor count (dose: 50.0 mg/kg/injection, schedule: Q01DX009 (ip), vehicle: saline): 0 of 6
survivor count (dose: 100.0 mg/kg/injection, schedule: Q01DX009 (ip), vehicle: saline): 0 of 6
survivor count (dose: 200.0 mg/kg/injection, schedule: Q01DX009 (ip), vehicle: saline): 0 of 6

N#CNC1=NCOCN1
survivor count [1]: 2 of 6

CC(C)C1C(=O)N(c2ccccc2)N(C)C1C (configuration not stated)
survivor count [11]: 3 of 6

CC(=O)Nc1cccc(N=Cc2ccc[nH]2)c1
survivor count [11]: 3 of 6

Reference: PubChem BioAssay AID330 (DTP/NCI, 2004)
